Reference: publication PMC6736869
No constants are given. Whether binding was seen depends on the method and setting. In cells and extracts the contact can be indirect. Some entries that bind do so weakly or less than the wild type.

By UniProt entry, the sequences of proteins in these tests, tags left out. Residues count along the entry.
UniProt Q15118, residues 29-436: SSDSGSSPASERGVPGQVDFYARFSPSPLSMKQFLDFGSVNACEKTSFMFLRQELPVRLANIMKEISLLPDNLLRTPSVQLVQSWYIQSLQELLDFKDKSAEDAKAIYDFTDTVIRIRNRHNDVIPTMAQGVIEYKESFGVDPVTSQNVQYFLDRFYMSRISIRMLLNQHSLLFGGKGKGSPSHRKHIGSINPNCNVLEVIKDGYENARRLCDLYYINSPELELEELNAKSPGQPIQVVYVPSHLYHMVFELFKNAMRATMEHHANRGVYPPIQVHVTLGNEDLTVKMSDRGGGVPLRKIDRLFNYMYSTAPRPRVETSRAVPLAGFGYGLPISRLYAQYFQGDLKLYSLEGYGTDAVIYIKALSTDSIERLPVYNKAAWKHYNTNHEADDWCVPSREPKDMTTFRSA
UniProt P40763: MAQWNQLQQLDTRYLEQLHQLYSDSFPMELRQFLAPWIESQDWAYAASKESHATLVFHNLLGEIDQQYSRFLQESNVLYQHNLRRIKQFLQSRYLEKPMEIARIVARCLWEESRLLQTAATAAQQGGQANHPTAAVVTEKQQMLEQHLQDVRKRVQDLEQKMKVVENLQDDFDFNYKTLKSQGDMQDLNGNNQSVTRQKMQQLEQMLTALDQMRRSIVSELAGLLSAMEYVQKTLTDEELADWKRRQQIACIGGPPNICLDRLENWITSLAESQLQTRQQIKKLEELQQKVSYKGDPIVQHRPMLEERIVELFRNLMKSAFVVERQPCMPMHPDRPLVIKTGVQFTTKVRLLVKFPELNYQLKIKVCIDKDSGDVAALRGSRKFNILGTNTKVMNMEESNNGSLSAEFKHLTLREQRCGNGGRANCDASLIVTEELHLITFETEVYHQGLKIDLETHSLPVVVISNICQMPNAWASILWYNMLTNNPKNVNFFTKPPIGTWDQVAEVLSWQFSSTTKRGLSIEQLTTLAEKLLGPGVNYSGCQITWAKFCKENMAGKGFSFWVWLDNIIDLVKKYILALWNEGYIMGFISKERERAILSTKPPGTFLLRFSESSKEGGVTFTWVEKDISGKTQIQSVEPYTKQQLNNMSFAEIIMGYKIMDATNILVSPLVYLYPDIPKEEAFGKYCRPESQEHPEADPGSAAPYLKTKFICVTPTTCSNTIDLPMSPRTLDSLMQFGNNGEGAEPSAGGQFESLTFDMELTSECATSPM

Target: pyruvate dehydrogenase kinase 1 (human (endogenous in HCT116 and SW480)) (UniProt Q15118)
Assay: co-IP; endogenous PDK1 precipitated with anti-PDK1 antibody and A/G sepharose beads from HCT116 and SW480 lysates (IP lysis buffer: 150 mM NaCl, 25 mM Tris-HCl pH 7.4, 1 mM EDTA, 1% NP-40), rotated overnight at 4 °C; Western blot for STAT3; rabbit IgG as control

binding: binds
Substance: STAT3 (from UniProt P40763 1-770)
